Data published in patent publication US20240108725A1, “METHOD FOR TREATING CANCER AND SYSTEM FOR SAME” (OTSUKA MEDICAL DEVICES CO., LTD, priority 2020, published 2024).

Experiments:
TL-Om1 cells = test: Rate of dead cells after 5-ALA PDT in erythrocyte solution, TL-Om1 cells, Example 3; type: cell-based, human; conditions: TL-0m1 cells
Procedure: (§1) C6 cells or human leukemia cell line TL-Oml cells were cultured in 2.5% FBS/F-12K medium (C6 cells) or 10% FBS/RPMI1640 (TL-Oml cells) supplemented with 5-ALA to a final concentration of 0.125 to 0.5 mM in a 5% CO2 incubator at 37° C. for 4 hours. After the culture, the cells were removed with a 0.25% trypsin-EDTA solution, and the collected cells were adjusted to 2×10^7 cells/mL with an erythrocyte solution (a solution in which erythrocytes and PBS were mixed at a ratio of 45:55). The cell suspension thus prepared was injected into a Tygon tube (inner diameter: 0.79 mm), wrapped around a light irradiator, and irradiated with light having a wavelength of 630 nm so that the irradiation energy density was 0.5 to 500 J/cm^2. After the irradiation, an ammonium chloride solution was added to the cell suspension to hemolyze the erythrocytes. Cells before the PDT treatment, after the PDT treatment, and after 24-hour culture were stained with the FITC Annexin V Apoptosis Detection Kit I and the rate of dead cells was analyzed with a flow cytometer.

C6 cells = test: Rate of dead cells after 5-ALA PDT in erythrocyte solution, C6 cells, Example 3; type: cell-based, rat
Procedure: as §1

SMILES: NCC(=O)CCC(=O)O [5-ALA, 5-aminolevulinic acid]
- irradiation energy density at which living cells immediately after irradiation were 8% or more and 24 hours after irradiation 2% or more lower (TL-Om1 cells; 5-ALA 0.25 mM): 10-500 J/cm^2
- irradiation energy density at which living cells immediately after irradiation were 8% or more and 24 hours after irradiation 2% or more lower (TL-Om1 cells; 5-ALA 0.5 mM): 2.5-500 J/cm^2
- irradiation energy density at which living cells immediately after irradiation were 8% or more and 24 hours after irradiation 2% or more lower (C6 cells; 5-ALA 0.25 mM): 2.5-300 J/cm^2
- irradiation energy density at which living cells immediately after irradiation were 8% or more and 24 hours after irradiation 2% or more lower (C6 cells; 5-ALA 0.5 mM): 2.5-350 J/cm^2
